## Primary screen of a compound library

Source: ChEMBL document CHEMBL3988442, “University of Dundee, Small-Polar-MMV Screening Library” (2021).

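Viability assay of Plasmodium falciparum sporozoites; the read-out is not stated. The concentration is filed as 10 mM, unlikely as a test dose, so the dose is not known. Direction is inferred from retests: higher values go with lower viability. Strong results were mostly tested again. Size under these conditions: about 34,000 compounds, about 280 of them at 50% or above in at least one test.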

Each number is a percent effect as filed. The record does not define 0% and 100%; most values in the screen are far below 50% and negative numbers occur (in some assays of this library far below -100). This is an unselected part of the compounds tested. Two or more numbers in one place are separate tests of the same structure; such repeats can differ widely.

SMILES	percent effect
Cc1nc(C2CCCN(C(=O)c3cc(Cl)c[nH]3)C2)sc1C (stereo not drawn)	13.72
CCn1ccnc1CN1CCCN(C(=O)c2cc(Cl)c[nH]2)CC1	2.899
Cc1ccc(N2CCC3(CCN(C(N)=O)CC3)CC2)nn1	-4.362
CC(=O)c1ccc(N2CCC(CO)(CCOc3ccccc3)CC2)nc1	2.835
CCOCCN1CCN(Cc2cccc(C(=O)N(C)C)c2)CC1CC (stereo not drawn)	5.981
O=C(c1ccccc1Cl)N1CC[C@H](O)[C@@H](N2CCOCC2)CC1	4.017
CC1CCN(c2ncc3c(n2)CN(c2ccccc2)C3=O)CC1	-5.016
Cc1cccc(N2CCC(N3CCCC4(CNC(=O)O4)C3)CC2)c1C (stereo not drawn)	11.1
CC(C)(C)CN1CC(O)CN(C(=O)c2cccc(C(F)(F)F)c2)CC1=O (stereo not drawn)	-28.07
[H][C@]12CNC[C@@]1(C(=O)NCc1cc(C)n[nH]1)CN(C(=O)COC)C2	-1.228
Cn1cc(CN2CCn3cc(CNC(=O)c4cccn4C)nc3C2)cn1.O=C(O)C(F)(F)F	-6.805
O=S(=O)(C1CC1)N1CCCn2nnc(Cn3cccc3)c2C1	-3.51
COc1cccc(CN2CCC(c3nnc(-c4cnc(C)cn4)o3)C2)c1 (stereo not drawn)	3.472
Cc1cc(NC(=O)C(c2cccc(F)c2)N2CCOCC2)sn1 (stereo not drawn)	-31.37
CCOCC(O)CN1CCN(C(=O)C2CCCCC2)CC1 (stereo not drawn)	2.061
O=C(O)C(F)(F)F.O=C(O)C(F)(F)F.O=C(O)C(F)(F)F.[H][C@]12CCN(Cc3ccccn3)[C@@]1([H])CC[C@@H](COCc1ccncc1)O2	-152.4
COC1COC2(CCN(Cc3ccco3)CC2)C1 (stereo not drawn)	-10.09
CCOc1no[n+]([O-])c1-c1ccccc1	-1.982
CC(C)c1ncncc1C(=O)N1CCN(Cc2cscn2)CC1	-7.937
Cc1cc(C#N)ccc1S(=O)(=O)N1CCN(C)Cc2ccccc21	1.6
O=C(CSc1nncs1)N1CCN(Cc2ccc(Cl)s2)CC1	-13.11
CCN(Cc1ccc(C(C)C)cc1)C(=O)c1csc(CN(C)C)n1	10.62
COCCCN1CC2(CCC1=O)CCN(Cc1cc(C)no1)CC2	-2.544
CSCc1nc(CCNC(=O)c2cnn(C(C)C)c2)cs1	-9.414
Cc1cc(F)ccc1S(=O)(=O)NCc1[nH]ncc1Br	0.111
Nc1nccc(NCc2cc3n(n2)CCCN(C2CCCCC2)C3)n1	-8.138
Cc1ccc(-c2ccnc(NCC3(N(C)C)CCOCC3)n2)c(C)n1	-1.053
O=C(NCC(=O)N1CCCC(c2ccccc2)CC1)c1ccoc1 (stereo not drawn)	-1.35
CC(C)NC(=O)CC1COC2(CCN(Cc3cccs3)CC2)C1.O=C(O)C(F)(F)F (stereo not drawn)	3.989
CN(c1ccncn1)C1CC2(CCN(C(=O)c3cccn3C)C2)C1 (stereo not drawn)	-2.845
CC(=O)c1ccc(NC(=O)N(CCN(C)C)Cc2ccc(C)s2)cc1	-10.53
CCn1nnc2c1C(COCC(=O)N(C)C)CN(Cc1ccoc1)C2 (stereo not drawn)	10.75
Cc1nc(CN(C)Cc2cc3c(cc2OC(F)F)OCO3)oc1C	-26.8 & -23.25
CN1CCN(C(=O)[C@@H]2CN(C)C[C@]23COc2ccc(F)cc2C3=O)CC1	11.91
CCc1noc(CN2CCCN(C(N)=O)CC2)n1	-3.043
[H][C@@]12CN(C(=O)CC(F)(F)F)C[C@@]1([H])N(CC(C)C)C(=O)CO2	-10.39 & 2.882
CC(C)n1nc(CN2CCCC2)c2c1CN(CC1CC1)CC2.O=C(O)C(F)(F)F.O=C(O)C(F)(F)F	-3.12
[H][C@@]12CN(C(=O)CO)C[C@]1([H])C(=O)N(Cc1cccc(F)c1)C2	-7.015
Cc1c(COC(C)C)cccc1NC(=O)N1CCCC(CO)C1 (stereo not drawn)	-17.86
CCN(CC)CCn1ccnc1-c1cccc(O)c1	3.834
Cc1noc(CN(C)c2nc(-c3ccco3)nc3c2CCN(C)CC3)n1	-0.1791
Cl.NCCc1cc(N2CCOCC2)nc(NC2CC2)n1	14.82
Cl.O=c1c2sccc2nc2n1CCN(Cc1ccsc1)CC2	8.688
CC(C)CC(=O)N1CCCC1c1cc(CO)[nH]n1 (stereo not drawn)	1.352
CN(C)c1ccc(C(=O)N2CCCN(Cc3cscn3)CC2)nn1	-1.215
CCn1ncc(C(=O)NCCc2nc(-c3cccnc3)n[nH]2)c1C	-0.06458
NC(=O)C1CCN(c2nccc(-c3c[nH]nc3C3CCCCC3)n2)CC1	5.165
CCn1cc2c(n1)CN(Cc1cnn(C)c1)CC2COCC1CC1.O=C(O)C(F)(F)F (stereo not drawn)	12.96
O=C(O)C(F)(F)F.[H][C@@]12COC[C@H](C(=O)N3CCOCC3)[C@]1([H])CN(C1CCCCC1)C2	8.773
O=C(CN1CCCC(Cn2cncn2)C1)NCCOc1ccccc1 (stereo not drawn)	-23.53
Cc1nn(CCO)c(C)c1CNC1CCc2c(Cl)cccc21 (stereo not drawn)	5.15
Cc1nn(C)c(N2CCOCC2)c1CN[C@@H]1c2ccccc2C[C@@H]1O	10.15
Cc1cc(NCc2csc(-c3ccco3)n2)ccc1C(N)=O	-10.97
CCSc1ncccc1C(=O)NCc1ccc(N(C)C)cc1	-5.723
COc1ccccc1C(O)CNC(=O)Nc1ccccn1 (stereo not drawn)	2.728
CC(=O)N1CCn2cc(CNC(=O)c3cccn3C)nc2C1	-6.574
CC(O)CN1CCN(Cc2nnc(C3CC3)o2)CC1 (stereo not drawn)	2.714
CN(C)C(=O)C1CCCN(C(=O)c2ccccc2-n2cc(CN)cn2)C1 (stereo not drawn)	-0.5754
CC(C)(O)CN1CC(C)(C)CN(C(=O)CCc2ccccc2)CC1=O	15.26
N#CC1(NC(=O)COC(=O)Cc2cc(Cl)c3c(c2)OCCO3)CCCC1	-9.314
CCN(Cc1cccc2c1OCO2)C(=O)Nc1ccccn1	4.051
CCOCCN1CCN(Cc2nnc(C3CC3)o2)CC1CC (stereo not drawn)	10.04
CO[C@@H]1CCN(C2CCOCC2)C[C@@H]1Cc1ccccc1.O=C(O)C(F)(F)F	10.27
[H][C@]12CNC[C@@]1(C(=O)NCc1nc(C)cc(C)n1)CN(C(=O)COC)C2	1.93
Cl.O=C(CN1CCC[C@H]1C(=O)O)NCCOc1cccc(Cl)c1	-2.309
Cc1ccc(CNC(=O)C2CCN(C(=O)c3ccco3)CC2)n1C	0.9143
Cc1nc(CC(=O)N2CCCCC2Cn2cccn2)cs1 (stereo not drawn)	11.9
Cn1ccnc1CN1CCCC1c1noc(C2CC2)n1 (stereo not drawn)	-16.42

Once more, the final 6:

SMILES,percent effect
CO[C@@H]1CCN(C2CCOCC2)C[C@@H]1Cc1ccccc1.O=C(O)C(F)(F)F,10.27
[H][C@]12CNC[C@@]1(C(=O)NCc1nc(C)cc(C)n1)CN(C(=O)COC)C2,1.93
Cl.O=C(CN1CCC[C@H]1C(=O)O)NCCOc1cccc(Cl)c1,-2.309
Cc1ccc(CNC(=O)C2CCN(C(=O)c3ccco3)CC2)n1C,0.9143
Cc1nc(CC(=O)N2CCCCC2Cn2cccn2)cs1 (stereo not drawn),11.9
Cn1ccnc1CN1CCCC1c1noc(C2CC2)n1 (stereo not drawn),-16.42